Laboratory results: PubChem BioAssay AID504774 (Drosophila RNAi Screening Center, 2011)
The screen tested about 23,000 reagents; below is a random part of those with a known target gene and a result. 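Values are quantile-normalised luminescence on an arbitrary scale; higher means more cells surviving MMS.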 Not all columns of the deposit are shown.

Aim: 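Knock-downs that shift viability of MMS-exposed cells relative to untreated ones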 (primary screen)
System: Drosophila Kc167 cells
Reagents: long dsRNA against Drosophila genes, about 0.25 µg dsRNA per well
Timing: about 6 days: 3 days knock-down, then 3 days with or without MMS
Conditions: methyl methanesulphonate 0.004% (w/v) for 3 days after knock-down
Read-out: 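Viability in wells given MMS, read as ATP luminescence, normalised by quantiles plate by plate and averaged across replicates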
Scale: mean viability with MMS and viability with MMS: higher = more surviving cells after MMS

Knock-down of CG8176 [DRSC16394] gave: mean viability with MMS 3.65e6; viability with MMS, replicate 1 = 4.11e6.
For fs(1)M3 (female sterile (1) M3) [DRSC18381], the values are mean viability with MMS 3.59e6; viability with MMS, replicate 1 = 3.85e6.
After knock-down of CG13751 [DRSC06422] the results were mean viability with MMS 3.63e6; viability with MMS, replicate 1 = 4.06e6.
Knock-down of Mst33A [DRSC03371] came out at: mean viability with MMS 3.50e6; viability with MMS, replicate 1 = 4.04e6.
With knock-down of CG10591 [DRSC09748], the screen gave mean viability with MMS 3.59e6; viability with MMS, replicate 1 = 4.00e6.
Against Arf6 (ADP ribosylation factor 6) [DRSC05921], the values are mean viability with MMS 3.60e6; viability with MMS, replicate 1 = 4.07e6.
Hs3st-A (Heparan sulfate 3-O sulfotransferase-A) [DRSC06507] showed mean viability with MMS 2.87e6; viability with MMS, replicate 1 = 3.54e6.
Hs3st-A (Heparan sulfate 3-O sulfotransferase-A) [DRSC06508] showed mean viability with MMS 3.59e6; viability with MMS, replicate 1 = 4.15e6.
Knock-down of Hs3st-A (Heparan sulfate 3-O sulfotransferase-A) [DRSC06509] came out at: mean viability with MMS 3.45e6; viability with MMS, replicate 1 = 3.92e6.
For CG17764 [DRSC18135] the deposit lists mean viability with MMS 3.27e6; viability with MMS, replicate 1 = 3.75e6.
CG17764 [DRSC23055] scored mean viability with MMS 3.25e6; viability with MMS, replicate 1 = 3.63e6.
Against dpr17 (defective proboscis extension response 17) [DRSC12885], the values are mean viability with MMS 3.53e6; viability with MMS, replicate 1 = 4.13e6.
For dpr17 (defective proboscis extension response 17) [DRSC14957], the entry reads mean viability with MMS 2.95e6; viability with MMS, replicate 1 = 3.65e6.
For dpr17 (defective proboscis extension response 17) [DRSC14958], the values are mean viability with MMS 3.53e6; viability with MMS, replicate 1 = 4.03e6.
Knock-down of CG7322 [DRSC20036] gave: mean viability with MMS 3.56e6; viability with MMS, replicate 1 = 4.09e6.
Against CG41020 (retired record) [DRSC20866], the values are mean viability with MMS 2.43e6; viability with MMS, replicate 1 = 3.88e6.
With knock-down of CG16710 [DRSC15136], the screen gave mean viability with MMS 3.42e6; viability with MMS, replicate 1 = 3.91e6.
Depletion of yip2 (yippee interacting protein 2) [DRSC03640] came out at: mean viability with MMS 3.53e6; viability with MMS, replicate 1 = 4.02e6.
Knock-down of CG30094 [DRSC22268] resulted in: mean viability with MMS 3.52e6; viability with MMS, replicate 1 = 4.00e6.
Usp20-33 (Ubiquitin specific protease 20/33) [DRSC07196] showed mean viability with MMS 3.60e6; viability with MMS, replicate 1 = 3.94e6.
After knock-down of Arp3 (Actin-related protein 3) [DRSC09669] the results were mean viability with MMS 3.50e6; viability with MMS, replicate 1 = 3.94e6.
After knock-down of Ssl2 (Strictosidine synthase-like 2) [DRSC14395], the screen gave mean viability with MMS 3.53e6; viability with MMS, replicate 1 = 4.06e6.
Ssl2 (Strictosidine synthase-like 2) [DRSC22796] scored mean viability with MMS 3.50e6; viability with MMS, replicate 1 = 4.02e6.
For CG15712 [DRSC06583], the entry reads mean viability with MMS 3.82e6; viability with MMS, replicate 1 = 4.33e6.
After knock-down of CG5681 [DRSC02876], the screen gave mean viability with MMS 3.55e6; viability with MMS, replicate 1 = 3.96e6.
Against cert (ceramide transfer protein) [DRSC09674] the deposit lists mean viability with MMS 3.66e6; viability with MMS, replicate 1 = 4.24e6.
Depletion of CG14456 [DRSC11713] came out at: mean viability with MMS 3.41e6; viability with MMS, replicate 1 = 3.75e6.
CG2278 [DRSC18226] scored mean viability with MMS 3.67e6; viability with MMS, replicate 1 = 4.24e6.

Targets listed so far whose gene name begins with H or h (3):
Hs3st-A (Heparan sulfate 3-O sulfotransferase-A) [DRSC06507]: mean viability with MMS = 2.87e6; viability with MMS, replicate 1 = 3.54e6
Hs3st-A (Heparan sulfate 3-O sulfotransferase-A) [DRSC06508]: mean viability with MMS = 3.59e6; viability with MMS, replicate 1 = 4.15e6
Hs3st-A (Heparan sulfate 3-O sulfotransferase-A) [DRSC06509]: mean viability with MMS = 3.45e6; viability with MMS, replicate 1 = 3.92e6

The list goes on.
DCX-EMAP [DRSC10012] showed mean viability with MMS 3.57e6; viability with MMS, replicate 1 = 4.11e6.
With knock-down of DCX-EMAP [DRSC10013], the screen gave mean viability with MMS 3.28e6; viability with MMS, replicate 1 = 3.63e6.
Mgat4a [DRSC09326] gave mean viability with MMS 3.52e6; viability with MMS, replicate 1 = 4.05e6.
After knock-down of Mgat4a [DRSC11070], the screen gave mean viability with MMS 3.71e6; viability with MMS, replicate 1 = 4.31e6.
After knock-down of Atg13 (Autophagy-related 13) [DRSC16228] the results were mean viability with MMS 3.63e6; viability with MMS, replicate 1 = 4.13e6.
For CG15005 [DRSC08459], the entry reads mean viability with MMS 3.64e6; viability with MMS, replicate 1 = 4.10e6.
Cox11 (Cytochrome c oxidase copper chaperone COX11) [DRSC22692] showed mean viability with MMS 3.46e6; viability with MMS, replicate 1 = 3.94e6.
With knock-down of ND-20 (NADH dehydrogenase (ubiquinone) 20 kDa subunit) [DRSC20164] the results were mean viability with MMS 3.33e6; viability with MMS, replicate 1 = 4.04e6.
vari (varicose) [DRSC03202] showed mean viability with MMS 3.53e6; viability with MMS, replicate 1 = 4.03e6.
Against scrt (scratch) [DRSC08736], the entry reads mean viability with MMS 3.02e6; viability with MMS, replicate 1 = 3.57e6.
Depletion of scrt (scratch) [DRSC23001] gave: mean viability with MMS 3.76e6; viability with MMS, replicate 1 = 4.14e6.
Knock-down of Upf3 [DRSC04092] gave: mean viability with MMS 3.52e6; viability with MMS, replicate 1 = 4.04e6.
After knock-down of PsGEF (Protostome-specific GEF) [DRSC18596], the screen gave mean viability with MMS 3.40e6; viability with MMS, replicate 1 = 3.77e6.
Knock-down of CG32816 [DRSC17337] resulted in: mean viability with MMS 3.62e6; viability with MMS, replicate 1 = 4.13e6.
Against vers (versatile) [DRSC10715], the entry reads mean viability with MMS 3.43e6; viability with MMS, replicate 1 = 3.87e6.
vers (versatile) [DRSC23232] showed mean viability with MMS 3.25e6; viability with MMS, replicate 1 = 3.62e6.
Silencing of CG43795 [DRSC04192] gave: mean viability with MMS 3.78e6; viability with MMS, replicate 1 = 4.37e6.
Silencing of CG43795 [DRSC04193] gave: mean viability with MMS 3.62e6; viability with MMS, replicate 1 = 4.10e6.
After knock-down of CG43795 [DRSC04194] the results were mean viability with MMS 3.57e6; viability with MMS, replicate 1 = 4.06e6.
CG43795 [DRSC04309] showed mean viability with MMS 3.90e6; viability with MMS, replicate 1 = 4.26e6.
For CG43795 [DRSC04310], the entry reads mean viability with MMS 4.05e6; viability with MMS, replicate 1 = 4.66e6.
With knock-down of CG43795 [DRSC22826], the record shows mean viability with MMS 3.57e6; viability with MMS, replicate 1 = 4.04e6.
